Measurements: PubChem BioAssay AID284 (DTP/NCI, 2004)
The list does not hold the whole screen: it gathers tests that were run many times, whatever their T/C, doses with no T/C, and many T/C values between a quarter and a half above the control. Further doses and runs are listed elsewhere. T/C: endpoint of the treated group in % of that of the vehicle group. Some entries give survivors of the animals treated and no T/C: the source files T/C as zero there, which appears to mark a toxic dose or a test without result, not a measured value. Some doses without a T/C left all or most animals alive at the check, yet need not have been tolerated: survival well below the control is almost never listed, so the zero probably covers shortened survival too. Survivors were counted at the toxicity check, usually on the fifth day, unless a day is given; later deaths do not show. Schedules are NCI's codes, read here as Q, the interval in days (D) or hours (H), X, the number of doses. Some schedule codes hold Z or #, which are not explained here. Some entries were tested several times; their values stand side by side, smallest first. For survival time, the PubChem record calls one and a half times the control and up active, and a quarter to a half above the control has no call in these data; cut-offs in other NCI protocols can differ. Some T/C values carry the count of animals alive at the toxicity check (mostly the fifth day); where none is given, no animal had died by that day.

System: BDF1 mice, L1210/MTX-resistant leukemia ip, survival T/C
Test: NCI In Vivo Anticancer Drug Screen. Data for tumor model L1210 Leukemia resistant to Methotrexate; NSC 740 (intraperitoneal) in B6D2F1 (BDF1) mice
Conditions: T/C endpoint: mean survival time, higher T/C = longer survival
Protocol: The antitumor activity of compounds was measured in mice bearing transplantable tumors. Survival or tumor size were measured and the results are expressed as the measurement made in the treated group (T) divided by the measurement made in the vehicle treated control group (C). The tumor model used in this assay is L1210 Leukemia resistant to Methotrexate; NSC 740 (intraperitoneal) in B6D2F1 (BDF1) mice

[1] = dose: 40.0 mg/kg/injection, schedule: Q01DX010 (ip), vehicle: saline
[2] = dose: 50.0 mg/kg/injection, schedule: Q01DX Z (ip), vehicle: carboxymethylcellulose (CMC)
[3] = dose: 100.0 mg/kg/injection, schedule: Q01DX Z (ip), vehicle: carboxymethylcellulose (CMC)
[4] = dose: 62.5 mg/kg/injection, schedule: Q01DX010 (ip), vehicle: saline
[5] = dose: 125.0 mg/kg/injection, schedule: Q01DX010 (ip), vehicle: saline
[6] = dose: 25.0 mg/kg/injection, schedule: Q01DX010 (ip), vehicle: saline
[7] = dose: 40.0 mg/kg/injection, schedule: Q01DX Z (ip), vehicle: other
[8] = dose: 80.0 mg/kg/injection, schedule: Q01DX Z (ip), vehicle: other

Compound: Cc1cc(N(CCCl)CCCl)ccc1N=Nc1ccccc1C(=O)O
- survivor count (dose: 1.5 mg/kg/injection, schedule: Q01DX Z (ip), vehicle: carboxymethylcellulose (CMC)): 6 of 6
- T/C (dose: 2.0 mg/kg/injection, schedule: Q01DX Z (ip), vehicle: carboxymethylcellulose (CMC)): 128 % of control
- survivor count (dose: 15.0 mg/kg/injection, schedule: Q01DX Z (ip), vehicle: carboxymethylcellulose (CMC)): 5 of 6
- survivor count (dose: 20.0 mg/kg/injection, schedule: Q01DX Z (ip), vehicle: carboxymethylcellulose (CMC)): 6 of 6
- survivor count (dose: 30.0 mg/kg/injection, schedule: Q01DX Z (ip), vehicle: carboxymethylcellulose (CMC)): 6 of 6
- survivor count (dose: 37.5 mg/kg/injection, schedule: Q01DX Z (ip), vehicle: carboxymethylcellulose (CMC)): 6 of 6
- survivor count [1]: 6 of 6
- survivor count [2]: 6 of 6
- survivor count (dose: 75.0 mg/kg/injection, schedule: Q01DX Z (ip), vehicle: carboxymethylcellulose (CMC)): 5 of 6
- survivor count [3]: 5 of 6

Compound: CCCCNc1ncnc2c1cnn2C
- survivor count [4]: 6 of 6
- survivor count [5]: 5 of 6
- survivor count (dose: 250.0 mg/kg/injection, schedule: Q01DX010 (ip), vehicle: saline): 0 of 6

Compound: CN(C)c1ccc(/C=C\c2ccnc3ccccc23)cc1
- survivor count (dose: 12.0 mg/kg/injection, schedule: Q01DX010 (ip), vehicle: saline): 6 of 6

Compound: OCC1OC(n2cnc3c(Cl)ncnc32)C(O)C1O (stereo not given)
- survivor count (dose: 500.0 mg/kg/injection, schedule: Q01DX010 (ip), vehicle: saline): 6 of 6

Compound: O=c1[nH]c(=O)n(C2CC(O)C(CO)O2)cc1I (stereo not given)
- survivor count (dose: 62.5 mg/kg/injection, schedule: Q01DX Z (ip), vehicle: carboxymethylcellulose (CMC)): 6 of 6
- survivor count (dose: 125.0 mg/kg/injection, schedule: Q01DX Z (ip), vehicle: carboxymethylcellulose (CMC)): 5 of 6
- survivor count (dose: 250.0 mg/kg/injection, schedule: Q01DX Z (ip), vehicle: carboxymethylcellulose (CMC)): 6 of 6
- survivor count (dose: 500.0 mg/kg/injection, schedule: Q01DX Z (ip), vehicle: carboxymethylcellulose (CMC)): 5 of 6

Compound: CC1CCOS(=O)O1 (stereo not given)
- survivor count (dose: 80.0 mg/kg/injection, schedule: Q01DX010 (ip), vehicle: saline): 6 of 6

Compound: Cn1c(O)c(N=NC(N)=S)c2ccccc21
- survivor count (dose: 25.0 mg/kg/injection, schedule: Q01DX Z (ip), vehicle: carboxymethylcellulose (CMC)): 6 of 6
- survivor count (dose: 200.0 mg/kg/injection, schedule: Q01DX Z (ip), vehicle: carboxymethylcellulose (CMC)): 6 of 6

Compound: c1ccc(CNc2ncnc3[nH]ncc23)cc1
- survivor count (dose: 32.0 mg/kg/injection, schedule: Q01DX010 (ip), vehicle: saline): 6 of 6
- survivor count (dose: 64.0 mg/kg/injection, schedule: Q01DX010 (ip), vehicle: saline): 6 of 6

Compound: [I][Hg][CH2]C1COC([CH2][Hg][I])CO1 (stereo not given)
- survivor count (dose: 3.2 mg/kg/injection, schedule: Q01DX Z (ip), vehicle: methylcellulose (MC)): 5 of 6 and 6 of 6
- survivor count (dose: 6.3 mg/kg/injection, schedule: Q01DX Z (ip), vehicle: methylcellulose (MC)): 5 of 6
- survivor count (dose: 12.5 mg/kg/injection, schedule: Q01DX Z (ip), vehicle: methylcellulose (MC)): 5 of 6
- survivor count [6]: 5 of 6
- survivor count (dose: 50.0 mg/kg/injection, schedule: Q01DX010 (ip), vehicle: saline): 2 of 6

Compound: Nc1nc2n[nH]nc2c(=O)[nH]1
- survivor count (dose: 25.0 mg/kg/injection, schedule: Q01DX010 (ip), vehicle: alkali diluted with saline): 6 of 6
- T/C [7]: 90, 100, 104, 123 % of control
- survivor count [7]: 1 of 6 and 5 of 6
- T/C (dose: 75.0 mg/kg/injection, schedule: Q01DX Z (ip), vehicle: water): 135 % of control
- T/C [8]: 91, 92, 108, 112, 125 % of control [5 of 6 alive]
- survivor count [8]: 1 of 6
- T/C (dose: 100.0 mg/kg/injection, schedule: Q01DX Z (ip), vehicle: water): 127 % of control
- survivor count (dose: 400.0 mg/kg/injection, schedule: Q01DX Z (ip), vehicle: water): 6 of 6
- survivor count (dose: 500.0 mg/kg/injection, schedule: Q01DX Z (ip), vehicle: water): 3 of 6

Compound: O=c1[nH]c(=O)n(C2CC(O)C(CO)O2)cc1F (stereo not given)
- T/C [7]: 142 % of control
- T/C [8]: 128 % of control
- survivor count (dose: 160.0 mg/kg/injection, schedule: Q01DX Z (ip), vehicle: other): 6 of 6

Compound: O=CCC(O)C(O)C(O)CO (stereo not given)
- T/C (dose: 2.5 mg/kg/injection, schedule: Q01DX Z (ip), vehicle: saline): 130 % of control
- T/C (dose: 5.0 mg/kg/injection, schedule: Q01DX Z (ip), vehicle: saline): 131 % of control

Compound: O=C(O)CCCc1ccc(N(CCCl)CCCl)cc1
- survivor count [2]: 0 of 6

Compound: CN(N=O)C(N)=O
- T/C (dose: 10.0 mg/kg/injection, schedule: Q01DX010 (ip), vehicle: saline): 149 % of control
- T/C (dose: 20.0 mg/kg/injection, schedule: Q01DX010 (ip), vehicle: saline): 142 % of control
- survivor count [1]: 6 of 6
- survivor count (dose: 50.0 mg/kg/injection, schedule: Q01DX Z (ip), vehicle: saline): 6 of 6
- survivor count (dose: 100.0 mg/kg/injection, schedule: Q01DX Z (ip), vehicle: saline): 0 of 6
- survivor count (dose: 200.0 mg/kg/injection, schedule: Q01DX Z (ip), vehicle: saline): 0 of 6

Compound: CC/C(=C(/CC)c1ccc(O)cc1)c1ccc(O)cc1
- survivor count (dose: 25.0 mg/kg/injection, schedule: Q01DX010 (sc), vehicle: steroid suspending solution): 6 of 6
- survivor count (dose: 50.0 mg/kg/injection, schedule: Q01DX010 (sc), vehicle: steroid suspending solution): 6 of 6

Compound: CC(=O)N(C)C
- survivor count (dose: 63.0 mg/kg/injection, schedule: Q01DX Z (ip), vehicle: methylcellulose (MC)): 5 of 6
- survivor count (dose: 125.0 mg/kg/injection, schedule: Q01DX Z (ip), vehicle: methylcellulose (MC)): 6 of 6
- T/C (dose: 125.0 mg/kg/injection, schedule: Q01DX Z (ip), vehicle: saline): 125 % of control
- survivor count (dose: 250.0 mg/kg/injection, schedule: Q01DX Z (ip), vehicle: methylcellulose (MC)): 5 of 6 and 6 of 6
- T/C (dose: 250.0 mg/kg/injection, schedule: Q01DX Z (ip), vehicle: saline): 125 and 130 % of control
- survivor count (dose: 500.0 mg/kg/injection, schedule: Q01DX Z (ip), vehicle: methylcellulose (MC)): 6 of 6

Compound: O=c1cn[nH]c(=O)[nH]1
- survivor count [4]: 6 of 6
- survivor count [5]: 6 of 6

Compound: CCCNc1ncnc2[nH]ncc12
- survivor count [6]: 6 of 6

Compound: CC1(C)N=C(N)N=C(N)N1c1cccc(Br)c1
- survivor count (dose: 0.5 mg/kg/injection, schedule: Q01DX Z (ip), vehicle: carboxymethylcellulose (CMC)): 6 of 6
- survivor count (dose: 1.0 mg/kg/injection, schedule: Q01DX Z (ip), vehicle: carboxymethylcellulose (CMC)): 6 of 6
- survivor count (dose: 4.0 mg/kg/injection, schedule: Q01DX Z (ip), vehicle: carboxymethylcellulose (CMC)): 6 of 6
- survivor count [3]: 2 of 7

Compound: Nc1nc(=S)c2ncn(C3OC(CO)C(O)C3O)c2[nH]1 (stereo not given)
- survivor count (dose: 0.9 mg/kg/injection, schedule: Q01DX Z (ip), vehicle: carboxymethylcellulose (CMC)): 5 of 6
- survivor count (dose: 3.75 mg/kg/injection, schedule: Q01DX Z (ip), vehicle: carboxymethylcellulose (CMC)): 6 of 6
- survivor count (dose: 5.0 mg/kg/injection, schedule: Q01DX Z (ip), vehicle: carboxymethylcellulose (CMC)): 6 of 6
- survivor count (dose: 7.5 mg/kg/injection, schedule: Q01DX Z (ip), vehicle: carboxymethylcellulose (CMC)): 6 of 6
- survivor count (dose: 10.0 mg/kg/injection, schedule: Q01DX Z (ip), vehicle: carboxymethylcellulose (CMC)): 6 of 6
